Data: article PMC4997316, “A ruthenium polypyridyl intercalator stalls DNA replication forks, radiosensitizes human cancer cells and is enhanced by Chk1 inhibition” (Scientific Reports, 2016)

Tested on: HeLa cells
Assay: subcellular Ru distribution by ICP-MS
Format: cell-based, human
Settings: 40 μM, 24 h; for Ru in cytosol/cytoskeletal component: share of total Ru content

[Ru+2].c1ccc(-c2nc3c4cccnc4c4ncccc4c3[nH]2)cc1.c1ccc2nc3c4cccnc4c4ncccc4c3nc2c1.c1ccc2nc3c4cccnc4c4ncccc4c3nc2c1 [Complex 1, [Ru(dppz)2(PIP)]^2+]
nuclear uptake, share of total Ru content: ~ 20%
Ru in cytosol/cytoskeletal component: 58%

Oc1ccc(-c2nc3c4cccnc4c4ncccc4c3[nH]2)cc1.[Ru+2].c1ccc2nc3c4cccnc4c4ncccc4c3nc2c1.c1ccc2nc3c4cccnc4c4ncccc4c3nc2c1 [Complex 2, [Ru(dppz)2(p-HPIP)]^2+]
nuclear uptake, share of total Ru content: ~ 20%
Ru in cytosol/cytoskeletal component: 52%
